# According to PubChem BioAssay AID2685 (National Center for Advancing Translational Sciences (NCATS), 2010):
# Some of the results follow. The main result of the screen is listed elsewhere. These columns were measured beside it and carry no call. The list favours compounds with an active or inconclusive main result. The note in brackets gives the kind of curve behind each potency; many fits are weak.
# Assay: qHTS Assay for Lipid Storage Modulators in Drosophila S3 Cells;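 on cell number change: cells counted by Cell Tracker Red CMTPX staining in the red channel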
# Details: BODIPY lipid droplet fluorescence, 18-24 h; for cell number change: measured here: cell count max response, cells fed with added oleic acid
# How it was run: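 Drosophila S3 cells loaded with oleic acid (400 uM, as added) and compounds at several concentrations; lipid droplets imaged by 488-nm laser-scanning cytometry, 500–530 nm intensity and object ratio to cell channel. Percent activity normalized to 20 uM Triacsin C.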
# [1] = measured here: cell number channel AC50, cells fed with added oleic acid
# [2] = measured here: lipid fluorescence (Fed channel) AC50, cells fed with added oleic acid
Compound,cell number change [%],AC50 [1],AC50 [2]
Nc1ccc(S(=O)(=O)N2CC3CC(C2)c2cccc(=O)n2C3)cc1 (stereo unspecified),-46.7,"1160 nM [falling, full curve]","1640 nM [falling, full curve]"
CN1C(=O)C(=Cc2ccc(OCCN(C)c3ccccn3)cc2)C(=O)N(C)C1=O,37.9,"18400 nM [rising, single point]",
COc1cc(CN2C(=O)NC(=O)C3(Cc4cc(C)ccc4N(C)C3)C2=O)cc(OC)c1 (stereo unspecified),28.4,,
CN(C)CCc1nc2ccccc2c(=O)n1-c1ccccc1,-19,,"6510 nM [falling, single point]"
O=C(N=Nc1c(O)[nH]c(=O)[nH]c1=O)C1COc2ccccc2O1 (stereo unspecified),-29.9,,"651 nM [falling, full curve, poor fit]"
O=C([O-])c1ccc(-[n+]2c(-c3ccccc3)cc(-c3ccccc3)cc2-c2ccccc2)cc1,8.91,"6510 nM [falling, single point]","2310 nM [falling, partial curve]"
O=C1CC(=O)N(c2cccc(Cl)c2)C(=O)N1,-10.7,,"1160 nM [falling, full curve]"
CCOC(=O)C1=C(N)OC(C)=C(C(=O)OCCOC)C12C(=O)Nc1ccccc12 (stereo unspecified),,"6510 nM [falling, single point]",
CCC(=NCC1CCCO1)c1c(O)n(-c2ccccc2C)c(=O)[nH]c1=O (stereo unspecified),27.6,,"731 nM [rising, partial curve, poor fit]"
CCOc1ccc(N=Cc2c(O)n(C(C)(C)C)c(=O)[nH]c2=O)cc1,-2.79,"461 nM [rising, full curve]",
COC(=O)C1=C(c2ccc3ccccc3c2)C[C@@H]2CC[C@H]1N2C(=O)N1CCC(C)CC1,-45.1,"16400 nM [falling, partial curve]","651 nM [falling, full curve, poor fit]"
COc1ccc(-n2c(/C=C/c3cccc(F)c3)nc3ccccc3c2=O)c(OC)c1,5.83,,"411 nM [rising, full curve]"
COc1ccc(-c2nn(CCC#N)cc2C(=O)Nc2ccc(C(C)=O)cc2)cc1,-23.6,,"103 nM [rising, full curve, poor fit]"
O=C1CC(c2cccnc2)=NN1c1ccc(Cl)cc1Cl,-31.9,"13000 nM [falling, partial curve, poor fit]",
CN(C)C(=O)Oc1c(Cl)cc(Cl)c2ccccc12,2.05,,
COC(=O)C1=C(c2cccc3c2S(=O)(=O)c2ccccc2-3)C[C@@H]2CC[C@H]1N2C(=O)N1CCOCC1,-5.54,,"29100 nM [rising, single point]"
O=C(Nc1cccc(OC(=O)N2CCOCC2)c1)N1CCOCC1,8.07,,
CO[C@H]1C=C2CCN(C)[C@H]2C2c3cc4c(cc3C(=O)O[C@@H]21)OCO4 (stereo partly specified),13.5,"206 nM [rising, full curve]","259 nM [rising, full curve]"
CCN(CC)S(=O)(=O)c1ccc(C)c(NCC(=O)Nc2ccc(C#N)c(Cl)c2)c1,27,"1640 nM [rising, partial curve]","6510 nM [rising, single point]"

# Exported as tab-separated lines: part of the list above
Compound	cell number change [%]	AC50 [1]	AC50 [2]
CN(C)CCc1nc2ccccc2c(=O)n1-c1ccccc1	-19		6510 nM [falling, single point]
O=C(N=Nc1c(O)[nH]c(=O)[nH]c1=O)C1COc2ccccc2O1 (stereo unspecified)	-29.9		651 nM [falling, full curve, poor fit]
COc1ccc(-n2c(/C=C/c3cccc(F)c3)nc3ccccc3c2=O)c(OC)c1	5.83		411 nM [rising, full curve]
CN(C)C(=O)Oc1c(Cl)cc(Cl)c2ccccc12	2.05		
COC(=O)C1=C(c2cccc3c2S(=O)(=O)c2ccccc2-3)C[C@@H]2CC[C@H]1N2C(=O)N1CCOCC1	-5.54		29100 nM [rising, single point]

# Next records

Compound,cell number change [%],AC50 [1],AC50 [2]
Cc1ccc(C(O)P(=O)(OCCC(C)C)c2ccc(N(C)C)cc2)cc1 (stereo unspecified),,"29100 nM [falling, single point]",
CC(C)=CCSc1nnc([C@@H](N)Cc2c[nH]c3ccccc23)o1,,,"731 nM [rising, full curve]"
O=C(N/N=C/c1c(O)n(CCc2ccccc2)c(=O)[nH]c1=O)c1ccccc1O,2.31,,
COP(=O)(OC)C1(O)C(=O)Nc2ccc(Br)cc21 (stereo unspecified),-7.87,"6510 nM [rising, single point]","2590 nM [rising, full curve]"
COc1cccc(NP(=O)(Oc2ccccc2Cl)Oc2ccccc2Cl)c1,-49.8,"29100 nM [falling, single point]","16400 nM [falling, single point]"
CC(=O)N1CCN(CCN=Cc2c(O)n(-c3ccc(C)cc3)c(=S)[nH]c2=O)CC1,36.6,,"11600 nM [rising, partial curve, poor fit]"
COC(=O)C1=C(c2ccc(F)cc2F)C[C@@H]2CC[C@H]1N2C(=O)NCc1ccc(F)cc1,13.9,,"366 nM [falling, full curve, poor fit]"
COc1ccc(CCn2c(O)c(/C=N/NC(=O)c3ccncc3)c(=O)[nH]c2=O)cc1OC,8.11,,"3260 nM [rising, single point]"
C[C@]12CCC(=O)C=C1CC[C@@H]1[C@@H]2CC[C@]2(C)C(=O)CC[C@@H]12,-2.31,,"1840 nM [rising, full curve, poor fit]"
CC(=O)O[C@H]1C[C@@H]2CC[C@@H]3[C@H](CC[C@]4(C)C(=O)CC[C@@H]34)[C@@]2(C)C[C@@H]1OC(C)=O,27.7,,"20600 nM [rising, single point]"
COC(=O)C1=C(c2ccccc2OCc2ccccc2)C[C@@H]2CC[C@H]1N2C(=O)NCc1ccc(OC)c(OC)c1,-3.97,,"29100 nM [falling, single point]"
OC(c1ccccc1)(c1ccccc1)C1CCNCC1,,,"651 nM [falling, single point]"
CN1CCN(C(=O)COc2ccc3ccccc3c2)CC1,-12.5,,
COc1ccc(N2C(=O)/C(=C/c3cc(C)n(-c4ccc(C)cn4)c3C)C(=O)NC2=S)c(OC)c1,-26.7,,"411 nM [falling, single point]"
Cc1ccc2c(c1)C1CN(C)CCC1N2C(=O)/C=C/c1ccc2c(c1)OCO2 (stereo unspecified),22.8,"6510 nM [rising, partial curve, poor fit]",
O=C1CC2OCC=C3CN4CCC56c7cc([N+](=O)[O-])ccc7N1C5C2C3CC46 (stereo unspecified),-23.3,"259 nM [falling, full curve, poor fit]",
Cc1ccccc1N1C(=O)/C(=C/c2ccco2)C(=O)NC1=S,-13.9,,"29100 nM [rising, partial curve]"
CC(=O)c1ccc2c(c1)C1C(Cl)C(Sc3ccccc3[N+](=O)[O-])CC1C(c1ccccc1[N+](=O)[O-])N2 (stereo unspecified),-24.7,,"29100 nM [falling, single point]"
Cc1cc(C)c(C(=O)N2CCC3(CC2)OCCO3)c(C)c1,7.42,,"20600 nM [rising, single point]"

Compound,cell number change [%],AC50 [1],AC50 [2]
COc1cccc(-n2c(/C=C/c3ccc(O)c(O)c3)nc3ccccc3c2=O)c1,-30.3,"5.17 nM [falling, full curve, poor fit]","4.61 nM [falling, full curve, poor fit]"
CC(C)NS(=O)(=O)c1ccc(OCC(=O)N2CCN(Cc3ccc4c(c3)OCO4)CC2)c(Cl)c1,-35.3,"29100 nM [falling, partial curve, poor fit]","29100 nM [falling, single point]"
COC(=O)C1=C(c2cccc(C#N)c2)C[C@@H]2CC[C@H]1N2C(=O)NC1CCCCC1,7.55,,"4.61 nM [rising, full curve, poor fit]"
CCN(CC)CCCN=Cc1c(O)n(-c2ccccc2F)c(=O)[nH]c1=O,1.48,,
Cn1c(=O)c2[nH]cnc2n(C)c1=O,,"18400 nM [rising, partial curve, poor fit]",
O=C1CC(=O)N(c2cccc(F)c2)C(=O)N1,-6.32,,"5170 nM [falling, single point]"
C=CC1CN2CCC1CC2c1[nH]c2ccccc2c1CCO (stereo unspecified),,"580 nM [falling, single point]",
CC#CP(=O)(OCC)C(O)(c1ccccc1)C(F)(F)F (stereo unspecified),,,"2910 nM [falling, partial curve]"
CC(N)Cc1ccccc1Sc1ccc(O)cc1 (stereo unspecified),-8.74,,"73.1 nM [falling, full curve, poor fit]"
COc1ccc(N2C(=O)CC(N3CCC(n4c(=O)[nH]c5ccccc54)CC3)C2=O)cc1 (stereo unspecified),,"651 nM [falling, single point]",
O=c1oc2ccccc2c(O)c1C(c1ccccn1)c1c(O)c2ccccc2oc1=O,19.2,,
O=C(O)CN1C(=O)CN=C(c2ccccn2)c2cc(Cl)ccc21,12.9,,"1460 nM [falling, full curve]"
C=CCNC(=O)c1c(N)n(CCN2CCOCC2)c2nc3ccccc3nc12,-29.4,,"6510 nM [falling, full curve, poor fit]"
O=C(N/N=C/c1c(O)n(C2CC2)c(=S)[nH]c1=O)c1ccccc1,44.6,"259 nM [rising, full curve]","731 nM [rising, full curve, poor fit]"
O=C1NC(=O)N(CCC2=CCCCC2)C(=O)/C1=C\c1cccs1,-35.7,"32600 nM [falling, partial curve, poor fit]","32600 nM [falling, partial curve]"
CCN(CC)c1ccc([N+](=O)[O-])c2cccnc12,12,"1160 nM [falling, full curve]","1300 nM [falling, full curve]"
CCCCOc1ccc(CCN)cc1Cl,18,"1300 nM [falling, full curve]","1160 nM [falling, single point]"
C/C=C(\C)C(=O)OC1C(C)=C2C(C1OC(=O)CCCCC)C(C)(OC(C)=O)CC(OC(=O)CCC)C1(O)C2OC(=O)C1(C)O (stereo unspecified),-75.2,"8200 nM [falling, partial curve]","7310 nM [falling, partial curve]"
